No constants are given. Whether binding was seen depends on the method and setting. Some results given as binding are weak or reduced against the parent protein; the word gives no strength. Each block holds one binder with its values, some of them ahead of it.
How the values were obtained:
[1] = biological target: T1, LexA-MB67 (bacterial, UniProt P0A7C2 1-202; Q14994 76-348, limits assumed); experiment: yeast interaction trap, X-gal plates
T1 construct: Made by PCR, 'analogous' to LexA-RXR and LexA-TR; also called Lex fusion MB67
T1 sequence (looked up): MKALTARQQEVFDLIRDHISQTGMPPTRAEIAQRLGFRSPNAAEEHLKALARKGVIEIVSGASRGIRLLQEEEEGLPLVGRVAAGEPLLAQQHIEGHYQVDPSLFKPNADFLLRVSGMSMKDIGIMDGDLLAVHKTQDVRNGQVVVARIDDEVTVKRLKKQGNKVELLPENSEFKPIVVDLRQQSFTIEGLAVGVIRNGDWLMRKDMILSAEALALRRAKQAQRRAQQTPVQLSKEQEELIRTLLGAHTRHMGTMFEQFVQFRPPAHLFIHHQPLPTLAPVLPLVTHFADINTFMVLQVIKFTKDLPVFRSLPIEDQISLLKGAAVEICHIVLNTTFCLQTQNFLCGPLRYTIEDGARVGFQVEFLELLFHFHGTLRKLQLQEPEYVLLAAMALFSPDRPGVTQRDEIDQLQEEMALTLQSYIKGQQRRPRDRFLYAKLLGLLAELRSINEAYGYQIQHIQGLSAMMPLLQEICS

[2] = biological target: T1, LexA-MB67; experiment: yeast interaction trap, X-gal plates (Table 1)
[3] = biological target: T1, LexA-MB67; experiment: yeast interaction trap, X-gal plate; B = blue (strong interaction)
[4] = biological target: T2, LexA-RXR (bacterial; human, UniProt P0A7C2 1-202; P19793 196-462, limits assumed); experiment: yeast interaction trap, X-gal plate, with 9-cis-RA; B = blue (strong interaction)
T2 sequence (looked up): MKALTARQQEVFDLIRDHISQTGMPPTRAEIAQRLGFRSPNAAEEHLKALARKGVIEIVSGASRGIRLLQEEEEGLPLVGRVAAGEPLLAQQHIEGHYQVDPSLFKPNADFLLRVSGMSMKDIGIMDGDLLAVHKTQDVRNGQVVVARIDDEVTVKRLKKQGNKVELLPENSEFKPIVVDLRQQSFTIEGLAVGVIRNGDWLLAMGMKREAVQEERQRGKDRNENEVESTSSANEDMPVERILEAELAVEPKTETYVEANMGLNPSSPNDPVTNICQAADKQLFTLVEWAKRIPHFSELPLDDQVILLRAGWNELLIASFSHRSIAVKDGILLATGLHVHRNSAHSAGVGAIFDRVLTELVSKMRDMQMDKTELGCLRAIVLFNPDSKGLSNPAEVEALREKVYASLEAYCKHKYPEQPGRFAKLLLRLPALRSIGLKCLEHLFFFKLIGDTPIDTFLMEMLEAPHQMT

[5] = biological target: T2, LexA-RXR; experiment: yeast interaction trap, X-gal plate, without ligand; B = blue (strong interaction)
[6] = biological target: T2, LexA-RXR; experiment: yeast interaction trap, β-galactosidase assay of liquid cultures, with and without 9-cis-RA (FIG. 1)
[7] = biological target: T2, LexA-RXR; experiment: yeast interaction trap, X-gal plates (Table 1)
[8] = biological target: T3, LexA-TR (bacterial; rat, UniProt P0A7C2 1-202; P18113 170-461, limits assumed); experiment: yeast interaction trap, X-gal plates (Table 1)
T3 construct: also called Lex fusion TR
T3 sequence (looked up): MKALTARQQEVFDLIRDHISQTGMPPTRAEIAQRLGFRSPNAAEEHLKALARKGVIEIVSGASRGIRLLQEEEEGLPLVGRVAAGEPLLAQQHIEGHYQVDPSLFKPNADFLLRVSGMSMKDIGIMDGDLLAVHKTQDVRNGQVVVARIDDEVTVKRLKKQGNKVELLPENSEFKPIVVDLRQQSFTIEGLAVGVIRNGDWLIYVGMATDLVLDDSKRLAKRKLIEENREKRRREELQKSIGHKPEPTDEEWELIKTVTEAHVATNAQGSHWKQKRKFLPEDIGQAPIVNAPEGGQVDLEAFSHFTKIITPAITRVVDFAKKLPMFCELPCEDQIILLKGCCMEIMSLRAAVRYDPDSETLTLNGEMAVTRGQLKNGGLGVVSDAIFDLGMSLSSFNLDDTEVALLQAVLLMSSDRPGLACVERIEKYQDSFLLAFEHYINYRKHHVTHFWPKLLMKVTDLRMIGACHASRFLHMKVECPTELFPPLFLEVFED

[9] = biological target: T3, LexA-TR; experiment: yeast interaction trap, X-gal plate, with T3; B = blue (strong interaction)
[10] = biological target: T3, LexA-TR; experiment: yeast interaction trap, X-gal plate, without ligand; B = blue (strong interaction)
[11] = biological target: T3, LexA-TR; experiment: yeast interaction trap, X-gal plates, with and without T3

binding [1]: binds
binding [2]: binds
binding [3]: binds
B1: B42-RIP110 (protein, not shown: large carriers)
chain: SPSCGFQRKDLETSSCVSIKKKRRLEDLLIVISDSDGEETKEENGLQKTKTKQSNRSKCLAKRKVAHMSEEEQFALALKMSEQEAREVNNQEEKEEELLRKAIAESLNSCWSSAASATRSRPLAAELSSHSHQENTKDSGTTEGVWQLVPPSLCKGSHVSQGNEAEQRKEPWDHNENTEEEPVSGSSGSWDQSSQPVFENENVKCFDRCTGHLAEHTQCGKPQESTGSGYAFSKAVQGRGDTSRQCLPIPADTKGLQDTGGTVHYYWGIPFCPAGVDPNQYTNVILCQLEVYQKSLKMAQRQLVKKRGFGEPVLPRPPFLIQNECGQEDQTSDKNEGISEDMGDEAKEERQESRASVWHSETKDFQKSPIKSLKQKLLLEEEPTTSRGQSSQGLFVEETSEEGLKSSEGDNSVPTTQSIAALTSKRSLVLMPESSAEEITVCPETQLSFLEPLDLNREDSPDSRELPIEVRMAVGDKQVANREDCMKENPPPAVSSSTRVSCPLCNQDFPPTKIEQHAMYCNGLMEQETVLTRRRREAKNKSDGRTAAQPALDANRKEKCYLCKSLVPLGEYQCHVEACLQLAKVDREDGIEGTRRPRVCAPVEGKQQQRLKKSKDKGHSQGRLLSLLEQSEHRTTGVEKKPKYSEVRTFRMPSPEVEEASCSREMQSTLSQLNLNESPIKSFVPVSEATNCLVDFKEQFAFRSRTKSGRERRRKS

B2: B42-PPAR (plasmid isolated from the screening, as used in Table 1) (other, mouse, UniProt P23204 91-468, looked up, not shown: large carriers)
chain: DESPGSALNIECRICGDKASGYHYGVHACEGCKGFFRRTIRLKLVYDKCDRSCKIQKKNRNKCQYCRFHKCLSVGMSHNAIRFGRMPRSEKAKLKAEILTCEHDLKDSETADLKSLGKRIHEAYLKNFNMNKVKARVILAGKTSNNPPFVIHDMETLCMAEKTLVAKMVANGVEDKEAEVRFFHCCQCMSVETVTELTEFAKAIPGFANLDLNDQVTLLKYGVYEAIFTMLSSLMNKDGMLIAYGNGFITREFLKNLRKPFCDIMEPKFDFAMKFNALELDDSDISLFVAAIICCGDRPGLLNIGYIEKLQEGIVHVLKLHLQSNHPDDTFLFPKLLQKMVDLRQLVTEHAQLVQVIKKTESDAALHPLLQEIYRDMY
notes: 'For B42-PPAR, the plasmid isolated from the screening was used'; also called B42 fusion PPAR
binding [4]: binds
binding [5]: binds

B3: B42-RIP15 (other, not shown: large carriers)
chain: EEQIRKKRIQKQQQQQPPPPSEPAASSSGRPAASPGTSEASSQGSGEGEGIQLTAAQELMIQQLVAAQLQCNKRSFSDQPKVTPWPLGADPQSRDARQQRFAHFTELAIISVQEIVDFAKQVPGFLQLGREDQIALLKASTIEIMLLQTARRYNHETECITFLKDFTYSKDDFHRAGLQVEFINPIFEFSRAMRRLGLDDAEYALLIAINIFSADRPNVQEPSRVEALQQPYVEALLSYTRIKRPQDQLRFPRMLMKLVSLRTLSSVHSEQVFALRLQDKKLPPLLSEIWDVHE
notes: Original yeast clone; Its B42 fusion junction is near the beginning of the hinge (D) domain, with no residue number stated; also called B42 fusion 15; RIP15 chimera
binding [6]: binds
binding [4]: binds
binding [7]: binds
binding [5]: binds

B4: B42-RIP13 (other, not shown: large carriers)
chain: DALAALVDAAASAPQMDVSKTKESKHEAARLEENLRSRSAAVSEQQQLEQKNLEVEKRSVQCVCTSSALPSGKAQPHASVVYSEAGKDKGPPPKSRYEEELRTRGKTTITAANFIDVTITRQIASDKDARERGSQSSDSSSSLSSHRYETASDAIEVISPASSPAPPQEKPQAYQPDMVKANQAENESTRQYEGPLHHYRSQQESPSPQQQPPLPPSSQSEGMGQVPRTHRLITLADHICQIITQDFARNQVPSQPSTSTFQTSPSALSSTPVRTKTSSRYSPESQSQTVLHPRPGPRVSPENLVDKSRGSRPGKSPERSHIPSEPYEPISPPQGPAVHEKQDSMLLLSQRGVDPAEQRSDSRSPGSISYLPSFFTKLESTSPMVKSKKQEIFRKLNSSGGGDSDMAAAQPGTEIFNLPAVTTSGAVSSRSHSFADPASNLGLEDIIRKALMGSFDDKVEDHGVVMSHPVGIMPGSASTSVVTSSEARRDEGEPSPHAGVCKPKLINKSNSRKSKSPIPGQSYLGTERPSSVSSVHSEGDYHRQTPGWAWEDRPSSTGSTQFPYNPLTIRMLSSTPPTQIACAPSAITQAAPHQQNRIWEREPAPLLSAQYETLSDSDD
binding [2]: binds
binding [8]: binds
binding [9]: binds
binding [3]: binds
binding [10]: binds
binding [11]: binds

Reference: patent US7115711 (GENERAL HOSPITAL, dated 2006)
